Laboratory results reported in publication PMC9627522.
For at least one entry, the source does not settle the construct or the ends of the probe.

Test system: GST-LlWRKY22 (Lilium longiflorum ('White Heaven'))
Assay: EMSA
Settings: EMSA kit (Thermo Fisher), 5'-biotin probes; pH and temperature not stated; recombinant protein; protein details: N-terminal GST (pGEX-4T-1); label: 5' biotin

Row | Sequence | binding result
1 | CTAGAGCGGTGCTCCTCTATCCTTTTGACATTTGCAAAGTCAATCACGCGGGAAACGAAAAATCCGGA (double strand) [22-probe (LlWRKY22 promoter, tandem W-boxes)] | binds
2 | ACTTCGTTGACCCAGCGGAGACAGATAGGTGAGACTGCCGAAGGCCGCTCGTGGTCGAGTTTCCCTTGACCTCGAC (double strand) [2B-probe (LlDREB2B promoter, tandem W-boxes)] | binds
